Consider one substance from US11311531B2, “Method for producing benzazoloquinolium (BQs) salts and using the biological activity of the composition” (Sistema Universitario Ana G. Mendez, Inc., priority 2014, dated 2022).

The data set deals with Toledo cells. In words: Fluorescent detection of metabolically active cells under hypoxic environment. Format: cell-based, human. The note with it: hypoxic conditions, 2, 12 and 24 hours.

As for “7-benzyl-3-nitrobenzimidazolo[3,2-a]quinolinium chloride [NBQ-48]”, the “transformation into fluorescent metabolite” value is listed as “transform the NBQ48 into a florescent metabolite”.
